In paper PMC12670160, “A drug-repurposing screen of FDA- and EMA-approved drugs identifies two NF-κB inhibitors active against eumycetoma” (Journal of Antimicrobial Chemotherapy, 2025):
Where a name gives a salt, the structure may show the parent alone. About 130 (2.5%) of roughly 5,300 compounds showed an effect of 50% or more. This is one part of the list.

test system: M. mycetomatis strain mm55; conditions: primary screen, metabolic activity vs growth control; 96 h, 2 µM; inhibitor

First: O=C(Nc1cccc(C(F)(F)F)c1)Nc1ccc(Br)cc1-c1nnn[nH]1 [ONC0000034, ns3623]
Second: O=C(O)c1ccc(/C=C2/SC(=S)N(c3cccc(C(F)(F)F)c3)C2=O)cc1 [ONC0002610, cftrinh172]
The “% viability” value of the first is higher: 93.37% for the first, 70.31% for the second.

Compared with `CC(=O)N[C@@H](CCC(N)=O)C(=O)O` [ONC0003225, aceglutamide], `C[C@H](C[C@H](N)C(=O)O)C(=O)O` [ONC0001938, sym 2081] is lower in “% viability” value: 111.2% for the first, 90.01% for the second.

Compared with `COc1ccc(C(=O)Nc2sc3c(c2C(N)=O)CCCC3)cc1OC` [ONC0003764, tcs359], `COc1cc(OCc2cccc(-c3ccccc3)c2C)cc(OC)c1CN1CCCC[C@H]1C(=O)O` [ONC0004249, bms1] is lower in “% viability” value: 108% for the first, 55.43% for the second.

Compared with `O=S(=O)(NCC1CC1)c1ccc(Nc2nccc(N3CCCc4cc(O)ccc43)n2)cc1` [ONC0000300, pyrintegrin], `Cc1cc(-c2cc(O)ccc2Cl)cc2nnc(Nc3ccc(OCCN4CCCC4)cc3)nc12` [ONC0000917, tg 100572 hydrochloride] is higher in “% viability” value: 82.61% for the first, 85.74% for the second.

First: Cc1cc(C(=O)NNCc2ccccc2)no1 [ONC0005549, isocarboxazid]
Second: CCOC(=O)Nc1cc2c(c(N)n1)NC(c1ccccc1)=C(C)N2 [ONC0002128, mivobulin]
The “% viability” value of the first is higher: 93.11% for the first, 3.846% for the second.

Going from `CC(=O)NC[C@H]1CN(c2ccc(N3CCSCC3)c(F)c2)C(=O)O1` [ONC0005507, sutezolid] to `O=C1N=C(N2CCOCC2)CN1c1ccc(Cl)cc1` [ONC0002463, imepitoin], the “% viability” value falls from 87.63% to 85.78%.

Going from `COc1ccc(-c2ccc(=N)n(CCCC(=O)O)n2)cc1` [ONC0001493, gabazine] to `O=C(O)CCCN1C(=O)c2cccc3cccc(c23)C1=O` [ONC0002626, isodibut], the “% viability” value falls from 75.99% to 70.64%.

First: CC(C)(S)[C@@H](N)C(=O)O [ONC0002780, penicillamine cuprimine]
Second: NC(C(=O)O)c1ccc(C(=O)O)c(O)c1 (stereo not shown) [ONC0002596, 4carboxy3hydroxyphenylglyciners]
The “% viability” value of the first is higher: 95.42% for the first, 58.45% for the second.

First: O=C(O)C1CSCN1 (stereo not shown) [ONC0002894, timonacic]
Second: CC(=O)NC1CCSC1=O (stereo not shown) [ONC0003132, citiolone]
The “% viability” value of the first is higher: 133.4% for the first, 73.4% for the second.

Compared with `[H]/N=C(\N/C(=N/[H])NCCCCCCNC(=N)NC(=N)Nc1ccc(Cl)cc1)Nc1ccc(Cl)cc1` [ONC0000326, chlorhexidine dihydrochloride], `O=C(O)c1ccccc1C(=O)Nc1ccc(-c2ccccc2)cc1` [ONC0001695, kartogenin] is lower in “% viability” value: 77.24% for the first, 57.41% for the second.

First: Cc1cccc(/C=N/Nc2cc(N3CCOCC3)nc(OCCc3ccccn3)n2)c1 [ONC0001860, apilimod]
Second: Cc1nc(N)sc1-c1ccnc(Nc2ccc(N3CCOCC3)cc2)n1 [ONC0004675, cyc116]
The “% viability” value of the first is lower: 90.03% for the first, 105% for the second.

Going from `CSc1ccc(C(=O)c2[nH]c(=O)[nH]c2C)cc1` [ONC0002172, enoximone] to `CSc1ccc(C(=O)/C=C/c2cc(C)c(OC(C)(C)C(=O)O)c(C)c2)cc1` [ONC0001336, elafibranor], the “% viability” value falls from 80.93% to 75.62%.

Compared with `COc1cc2c(c(OC)c1OC)-c1c(cc3c(c1OC)OCO3)C[C@H](C)[C@@](C)(O)C2` [ONC0001126, schisandrol b], `C[C@@H]1CN(CC(=O)Nc2ccc3c(c2)Cc2cccc(-c4cc(=O)cc(N5CCOCC5)o4)c2S3)C[C@H](C)O1` [ONC0004617, ku60019] is higher in “% viability” value: 73.98% for the first, 84.3% for the second.

Going from `Cn1c(/C=C/C(=O)NO)ccc1/C=C/C(=O)c1cccc(F)c1` [ONC0001259, mc1568] to `CC1=C(CC(=O)O)c2cc(F)ccc2/C1=C\c1ccc([S+](C)[O-])cc1` (stereo not shown) [ONC0000584, sulindac], the “% viability” value rises from 75.09% to 106.5%.

First: CCCCCCCCCCCCCCOC(=O)c1cccnc1 [ONC0003671, tetradecyl nicotinate]
Second: CCCCCCCCCCC[C@@H](C[C@@H]1OC(=O)[C@H]1CCCCCC)OC(=O)[C@H](CC(C)C)NC=O [ONC0003882, orlistat]
The “% viability” value of the first is higher: 79.3% for the first, 71.01% for the second.

First: O=C(CC(c1ccccc1)c1ccccc1)N1CCN(C(c2ccccc2)c2ccccc2)CC1 [ONC0000910, np118809]
Second: Cc1cc(Cn2cnc3c2C[C@@H](C(=O)O)N(C(=O)C(c2ccccc2)c2ccccc2)C3)ccc1N(C)C [ONC0001738, pd123319]
The “% viability” value of the first is lower: 59.72% for the first, 114.8% for the second.

Compared with `Cn1c(=O)c2c(ncn2CC(=O)O)n(C)c1=O` [ONC0002325, acefylline], `CCc1cccc2c3c([nH]c12)C(CC)(CC(=O)O)OCC3` (stereo not shown) [ONC0003226, etodolac] is higher in “% viability” value: 70.25% for the first, 127.6% for the second.

First: NC(=O)c1cc[n+](CC2=C(C(=O)O)N3C(=O)[C@@H](NC(=O)Cc4cccs4)[C@H]3SC2)cc1 [ONC0005624, cefalonium]
Second: Cn1nnnc1SCC1=C(C(=O)O)N2C(=O)[C@@H](NC(=O)[C@H](OC=O)c3ccccc3)[C@H]2SC1 [ONC0000559, cefamandole nafate]
The “% viability” value of the first is lower: 95.75% for the first, 111.5% for the second.

Going from `CC(C)(C)n1nc(-c2ccc(Cl)cc2)c2c(N)ncnc21` [ONC0001827, pp2] to `C=CC(=O)N1CCC[C@@H](n2nc(-c3ccc(Oc4ccccc4)cc3)c3c(N)ncnc32)C1` [ONC0005245, pci32765 ibrutinib], the “% viability” value rises from 83.22% to 175%.

Compared with `CS(=O)(=O)c1cccc(CNc2nc(Nc3ccc4c(c3)CCC(=O)N4)ncc2C(F)(F)F)c1` [ONC0002648, pf573228], `C=CC(=O)Nc1ccc2ncnc(Nc3ccc(OCc4cccc(F)c4)c(Cl)c3)c2c1` [ONC0004965, ast1306] is higher in “% viability” value: 80.9% for the first, 81.71% for the second.

Compared with `CC(C)=CCC/C(C)=C/CC/C(C)=C/CC/C(C)=C/CC1=C(C)C(=O)c2ccccc2C1=O` [ONC0005539, menatetrenone], `Cc1ccccc1N1C(=O)c2cc(S(N)(=O)=O)c(Cl)cc2NC1C` (stereo not shown) [ONC0005510, metolazone] is lower in “% viability” value: 92.52% for the first, 74.76% for the second.

Compared with `C[N+](C)(CCOc1ccccc1)Cc1ccccc1` [ONC0004004, bephenium hydroxynapthoate], `O=C1N(c2ccccc2)c2ccccc2C1(Cc1ccncc1)Cc1ccncc1` [ONC0001627, linopirdine] is higher in “% viability” value: 58.57% for the first, 73.45% for the second.

Compared with `CCCC[C@@H](NC(=O)[C@@H](Cc1cn(C(=O)OC)c2ccccc12)NC(=O)[C@H](CC(C)(C)C)NC(=O)N1[C@H](C)CCC[C@@H]1C)C(=O)O` [ONC0002254, bq788 sodium salt], `CCOC(=O)[C@H](CCc1ccccc1)N[C@@H](C)C(=O)N1CCC[C@H]1C(=O)O` [ONC0000561, enalapril maleate] is higher in “% viability” value: 82.31% for the first, 109.8% for the second.

First: CNC(=O)Oc1ccccc1OC(C)C [ONC0003282, propoxur]
Second: CC(C)COC(=O)c1ccc(N)cc1 [ONC0002977, isobutamben]
The “% viability” value of the first is lower: 56.04% for the first, 68.2% for the second.

First: CNC(=O)[C@H](Cc1ccccc1)NC(=O)[C@H](CC(C)C)[C@H](CSc1cccs1)C(=O)NO [ONC0005180, batimastat bb94]
Second: Cc1nc2ccc(CN(C)c3ccc(C(=O)N[C@@H](CCC(=O)O)C(=O)O)s3)cc2c(=O)[nH]1 [ONC0004884, raltitrexed tomudex]
The “% viability” value of the first is lower: 86.23% for the first, 134.6% for the second.

Going from `Cc1cccc(-c2n[nH]cc2-c2ccc3ncccc3n2)n1` [ONC0005169, repsox] to `N=C(N)c1ccc(-c2ccc(-c3ccc(C(=N)N)cc3)o2)cc1` [ONC0003070, furamidine], the “% viability” value rises from 79.46% to 108.4%.

First: O=C1CC2(CCCC2)CC(=O)N1CCNCC1COc2ccccc2O1 (stereo not shown) [ONC0001596, mdl73005ef]
Second: CC[N+](CC)(CC)CCC(O)(c1ccccc1)C1CCCCC1 (stereo not shown) [ONC0002920, tridihexethyl]
The “% viability” value of the first is higher: 68.7% for the first, 61.4% for the second.

Going from `CCCCC(=O)O[C@]1(C(=O)CO)CC[C@H]2[C@@H]3CCC4=CC(=O)CC[C@]4(C)[C@H]3[C@@H](O)C[C@@]21C` [ONC0004200, hydrocortisone valerate] to `C[C@]12CC[C@@H]3c4ccc(O)cc4CC[C@H]3[C@@H]1C[C@@H](O)[C@@H]2O` [ONC0000740, estriol], the “% viability” value falls from 91.76% to 68%.

Going from `Cc1noc(NS(=O)(=O)c2ccc(N)cc2)c1C` [ONC0000473, sulfisoxazole] to `O=C(OCCN1CCOCC1)c1cccnc1Nc1cccc(C(F)(F)F)c1` [ONC0003393, morniflumate], the “% viability” value rises from 62.85% to 98.78%.

Compared with `CN(C)CCCO[C@@H]1[C@H]2OC(C)(C)O[C@H]2O[C@@H]1[C@H](O)CO` [ONC0002945, amiprilose], `CC1CCC2C(C)(C)C3CC12CCC3(C)O` (stereo not shown) [ONC0003809, cedrol] is lower in “% viability” value: 76.31% for the first, 64.15% for the second.

Compared with `CC(Oc1c(Cl)cccc1Cl)C1=NCCN1` (stereo not shown) [ONC0002828, lofexidine hydrochloride], `COc1c(OCCCN2CCOCC2)ccc2c1N=C(NC(=O)c1cnc(N)nc1)N1CCN=C21` [ONC0000873, copanlisib] is lower in “% viability” value: 114.1% for the first, 88.34% for the second.

First: CC(=O)N1CCN(CCOc2ccc(C3CCN(C4=Nn5c(nnc5C(F)(F)F)CC4)CC3)cc2)CC1 [ONC0004456, azd3514]
Second: O=C(NC(O)C(Cl)(Cl)Cl)NC(O)C(Cl)(Cl)Cl (stereo not shown) [ONC0002412, dicloralurea]
The “% viability” value of the first is higher: 126.2% for the first, 111.8% for the second.
